# PMC3358304
# Amino acid sequences for entries named in this document (tags omitted). A change or cut given only in a name is not applied to a line headed by its entry.
# UniProt P31749: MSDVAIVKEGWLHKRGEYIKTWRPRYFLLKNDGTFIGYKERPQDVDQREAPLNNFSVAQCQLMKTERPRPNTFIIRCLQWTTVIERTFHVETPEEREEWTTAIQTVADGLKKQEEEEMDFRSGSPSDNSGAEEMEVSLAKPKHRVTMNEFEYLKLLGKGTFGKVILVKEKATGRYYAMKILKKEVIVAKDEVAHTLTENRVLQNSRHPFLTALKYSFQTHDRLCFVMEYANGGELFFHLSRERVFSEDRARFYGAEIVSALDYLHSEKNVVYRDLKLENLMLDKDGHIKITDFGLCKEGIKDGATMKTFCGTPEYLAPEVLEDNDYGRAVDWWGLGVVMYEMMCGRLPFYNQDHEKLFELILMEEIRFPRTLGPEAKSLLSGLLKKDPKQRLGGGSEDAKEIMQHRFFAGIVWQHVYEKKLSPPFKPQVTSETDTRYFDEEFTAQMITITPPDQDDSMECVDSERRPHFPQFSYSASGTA
# These are yes or no findings as the source states them, for the method shown. Binding seen in cells or lysates may run through a third protein. Some results given as binding are weak or reduced against the parent protein; the word gives no strength.
# Experiments:
# Test in all cases: co-IP; MCF-7 cells transfected with Flag-HA-Akt or its mutants and treated by IGF-1; Akt immunoprecipitated with anti-Flag agarose, precipitate probed against Akt and PDK1
# [1] = target: wild-type Akt (human AKT1, Flag-HA-AKT1) (human), P31749; details: remark: other sources report otherwise
# [2] = target: Akt T305A mutant (Flag-HA-AKT1 T305A) (human) (UniProt P31749)
# [3] = target: Akt T312A mutant (Flag-HA-AKT1 T312A) (human) (UniProt P31749)
binding [1],binding [2],binding [3],Binder
binds,,,"phosphoinositide-dependent kinase 1 (PDK1), O15530 1-556 (enzyme) MARTTSQLYDAVPIQSSVVLCSCPSPSMVRTQTESSTPPGIPGGSRQGPAMDGTAAEPRPGAGSLQHAQPPPQPRKKRPEDFKFGKILGEGSFSTVVLARELATSREYAIKILEKRHIIKENKVPYVTRERDVMSRLDHPFFVKLYFTFQDDEKLYFGLSYAKNGELLKYIRKIGSFDETCTRFYTAEIVSALEYLHGKGIIHRDLKPENILLNEDMHIQITDFGTAKVLSPESKQARANSFVGTAQYVSPELLTEKSACKSSDLWALGCIIYQLVAGLPPFRAGNEYLIFQKIIKLEYDFPEKFFPKARDLVEKLLVLDATKRLGCEEMEGYGPLKAHPFFESVTWENLHQQTPPKLTAYLPAMSEDDEDCYGNYDNLLSQFGCMQVSSSSSSHSLSASDTGLPQRSGSNIEQYIHDLDSNSFELDLQFSEDEKRLLLEKQAGGNPWHQFVENNLILKMGPVDKRKGLFARRRQLLLTEGPHLYYVDPVNKVLKGEIPWSQELRPEAKNFKTFFVHTPNRTYYLMDPSGNAHKWCRKIQEVWRQRYQSHPDAAVQ"
,binds,binds,"phosphoinositide-dependent kinase 1 (PDK1) (enzyme, UniProt O15530 1-556) MARTTSQLYDAVPIQSSVVLCSCPSPSMVRTQTESSTPPGIPGGSRQGPAMDGTAAEPRPGAGSLQHAQPPPQPRKKRPEDFKFGKILGEGSFSTVVLARELATSREYAIKILEKRHIIKENKVPYVTRERDVMSRLDHPFFVKLYFTFQDDEKLYFGLSYAKNGELLKYIRKIGSFDETCTRFYTAEIVSALEYLHGKGIIHRDLKPENILLNEDMHIQITDFGTAKVLSPESKQARANSFVGTAQYVSPELLTEKSACKSSDLWALGCIIYQLVAGLPPFRAGNEYLIFQKIIKLEYDFPEKFFPKARDLVEKLLVLDATKRLGCEEMEGYGPLKAHPFFESVTWENLHQQTPPKLTAYLPAMSEDDEDCYGNYDNLLSQFGCMQVSSSSSSHSLSASDTGLPQRSGSNIEQYIHDLDSNSFELDLQFSEDEKRLLLEKQAGGNPWHQFVENNLILKMGPVDKRKGLFARRRQLLLTEGPHLYYVDPVNKVLKGEIPWSQELRPEAKNFKTFFVHTPNRTYYLMDPSGNAHKWCRKIQEVWRQRYQSHPDAAVQ"
